# Experimental data from the supplement of paper PMC4604168 (melanoma cell lines).
# Some of the results follow. Repeats are few or missing, and single values can be far off.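 The apoptosis fraction was the count of cleaved-PARP antibody-stained nuclei relative to all DNA-stained nuclei, imaged in 1,536-well plates. Screening doses were set so most cells survived, and baseline and induced cleaved-PARP levels vary greatly across cell lines.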
# Columns and labels:
# Assay in all cases: cleaved PARP positive nuclei fraction relative to DMSO control; melanoma cells; higher = more apoptosis
# Settings in all cases: library dose: low library concentration; 72 h
# 501Mel = system: 501Mel
# A101D = system: A101D
# A2058 = system: A2058
# A375 = system: A375
# C32 = system: C32
# CBRC008 = system: CBRC008 (line from a melanoma biopsy)
# CBRC013 = system: CBRC013 (line from a melanoma biopsy)
# CBRC014 = system: CBRC014 (line from a melanoma biopsy)
# CBRC016 = system: CBRC016 (line from a melanoma biopsy)
# CBRC017 = system: CBRC017 (line from a melanoma biopsy)
# COLO792 = system: COLO792
# COLO800 = system: COLO800
# COLO829 = system: COLO829
# G361 = system: G361
# IPC-298 = system: IPC-298
# IST-MEL1 = system: IST-MEL1
# LB2518-MEL = system: LB2518-MEL
# LOXIMVI = system: LOXIMVI
# MEL-HO = system: MEL-HO
Structure (SMILES),cleaved PARP positive nuclei fraction (501Mel),cleaved PARP positive nuclei fraction (A101D),cleaved PARP positive nuclei fraction (A2058),cleaved PARP positive nuclei fraction (A375),cleaved PARP positive nuclei fraction (C32),cleaved PARP positive nuclei fraction (CBRC008),cleaved PARP positive nuclei fraction (CBRC013),cleaved PARP positive nuclei fraction (CBRC014),cleaved PARP positive nuclei fraction (CBRC016),cleaved PARP positive nuclei fraction (CBRC017),cleaved PARP positive nuclei fraction (COLO792),cleaved PARP positive nuclei fraction (COLO800),cleaved PARP positive nuclei fraction (COLO829),cleaved PARP positive nuclei fraction (G361),cleaved PARP positive nuclei fraction (IPC-298),cleaved PARP positive nuclei fraction (IST-MEL1),cleaved PARP positive nuclei fraction (LB2518-MEL),cleaved PARP positive nuclei fraction (LOXIMVI),cleaved PARP positive nuclei fraction (MEL-HO)
"CS(=O)(=O)CCNCc1ccc(-c2ccc3ncnc(Nc4ccc(OCc5cccc(F)c5)c(Cl)c4)c3c2)o1 [lapatinib] + COc1cc2c(Oc3ccc4[nH]c(C)cc4c3F)ncnc2cc1OCCCN1CCCC1 [cediranib] (first compound 0.8 µM, partner dose 0.4 µM)",118%,755%,107%,125%,129%,166%,106%,93.2%,134%,91.8%,78.2%,107%,91.4%,89.2%,58.8%,148%,91.3%,188%,32.9%
"Nc1nc(F)nc2c1ncn2[C@@H]1O[C@H](CO)[C@@H](O)[C@@H]1O [fludarabine] + CN(C)S(=O)(=O)c1ccc2c(c1)/C(=C/c1cc3c([nH]1)CCCC3)C(=O)N2 [SU6656] (first compound 0.2 µM, partner dose 0.4 µM)",1570%,69%,243%,7000%,149%,66.6%,522%,105%,70.4%,105%,35.9%,90.1%,129%,97.8%,101%,122%,110%,101%,65.6%
"CNC(=O)c1cc(Oc2ccc(NC(=O)Nc3ccc(Cl)c(C(F)(F)F)c3)cc2)ccn1 [sorafenib] + C[C@@H]1CCN(C(=O)CC#N)C[C@@H]1N(C)c1ncnc2[nH]ccc12 [CP690550] (first compound 0.4 µM, partner dose 1 µM)",87.4%,79.5%,126%,85.1%,117%,90.3%,95.4%,469%,22%,96.9%,46.6%,64.7%,149%,48%,47.5%,201%,19.3%,194%,186%
"O=C(O)c1ccc2c(c1)nc(Nc1cccc(Cl)c1)c1ccncc12 + O=C(CCCCCCC(=O)Nc1ccccc1)NO [vorinostat] (first compound 0.4 µM, partner dose 0.08 µM)",152%,69.5%,38.3%,147%,64.6%,151%,97.7%,144%,202%,183%,91.1%,77%,91.5%,67.2%,180%,48.4%,91.1%,124%,91.4%
"Nc1ncn([C@H]2C[C@H](O)[C@@H](CO)O2)c(=O)n1 [decitabine] + O=C(Nc1cccc(Cl)c1)Nc1ncc(CCNc2ncnc3ccsc23)s1 [SNS314] (first compound 0.1 µM, partner dose 0.0008 µM)",146%,79.1%,78.1%,141%,105%,128%,121%,102%,141%,113%,247%,164%,61.8%,94.1%,149%,178%,253%,17.7%,75.8%
"Nc1nc(F)nc2c1ncn2[C@@H]1O[C@H](CO)[C@@H](O)[C@@H]1O [fludarabine] + COc1cc(Nc2ncc(F)c(Nc3ccc4c(n3)NC(=O)C(C)(C)O4)n2)cc(OC)c1OC [Tamatinib] (first compound 0.2 µM, partner dose 0.4 µM)",1910%,94%,260%,931%,63%,165%,406%,84.5%,55.2%,76.1%,259%,271%,93.9%,68.8%,110%,107%,308%,129%,203%
"Cc1cc(Nc2cc(N3CCN(C)CC3)nc(/C=C/c3ccccc3)n2)n[nH]1 + COc1cc(Nc2ncc(F)c(Nc3ccc4c(n3)NC(=O)C(C)(C)O4)n2)cc(OC)c1OC [Tamatinib] (first compound 0.04 µM, partner dose 0.4 µM)",40.5%,80.8%,117%,57.1%,143%,126%,137%,95%,27.2%,92.5%,224%,111%,22.2%,66.9%,57.8%,49.9%,422%,191%,71%
"O=C(O)[C@@H]1[O][Sb](=[O])([O][Sb]2(=[O])[O][C@H]([C@H](O)CO)[C@H](O)[C@H](C(=O)O)[O]2)[O][C@H]([C@H](O)CO)[C@@H]1O (some centres undefined) [stibogluconate] + OCCn1cc(-c2cnc3nnn(Cc4ccc5ncccc5c4)c3n2)cn1 [PF04217903] (first compound 2 µM, partner dose 1 µM)",81.8%,95.9%,19.4%,79.4%,141%,148%,104%,73.5%,98%,84.3%,50.4%,108%,160%,107%,139%,205%,59.3%,135%,35.4%
"Nc1ncn([C@H]2C[C@H](O)[C@@H](CO)O2)c(=O)n1 [decitabine] + CC(C)(C)c1cnc(CSc2cnc(NC(=O)C3CCNCC3)s2)o1 [SNS-032] (first compound 0.1 µM, partner dose 0.01 µM)",157%,172%,69.5%,195%,129%,134%,136%,93.1%,97.3%,217%,126%,174%,87.3%,157%,127%,236%,95.9%,32.4%,211%
"CO[C@H]1C[C@@H]2CC[C@@H](C)[C@@](O)(O2)C(=O)C(=O)N2CCCC[C@H]2C(=O)O[C@H]([C@H](C)C[C@@H]2CC[C@@H](OCCO)[C@H](OC)C2)CC(=O)[C@H](C)/C=C(\C)[C@@H](O)[C@@H](OC)C(=O)[C@H](C)C[C@H](C)/C=C/C=C/C=C/1C [everolimus] + CC(C)(C)c1cnc(CSc2cnc(NC(=O)C3CCNCC3)s2)o1 [SNS-032] (first compound 0.02 µM, partner dose 0.01 µM)",144%,102%,144%,369%,50.3%,174%,56.7%,92.5%,162%,126%,118%,85%,191%,60.2%,117%,112%,59.2%,82.4%,51.9%
"C[C@@H](Oc1cc(-c2cnn(C3CCNCC3)c2)cnc1N)c1c(Cl)ccc(F)c1Cl [Crizotinib] + CO[C@@H]1[C@H](N(C)C(=O)c2ccccc2)C[C@H]2O[C@]1(C)n1c3ccccc3c3c4c(c5c6ccccc6n2c5c31)C(=O)NC4 [Midostaurin] (first compound 0.2 µM, partner dose 0.08 µM)",78.2%,86.2%,67.8%,242%,132%,207%,122%,109%,210%,86%,164%,96.8%,130%,205%,93.9%,34.4%,201%,29.9%,36.5%
"CO[C@H]1C[C@@H]2CC[C@@H](C)[C@@](O)(O2)C(=O)C(=O)N2CCCC[C@H]2C(=O)O[C@H]([C@H](C)C[C@@H]2CC[C@@H](OCCO)[C@H](OC)C2)CC(=O)[C@H](C)/C=C(\C)[C@@H](O)[C@@H](OC)C(=O)[C@H](C)C[C@H](C)/C=C/C=C/C=C/1C [everolimus] + CO[C@@H]1[C@H](N(C)C(=O)c2ccccc2)C[C@H]2O[C@]1(C)n1c3ccccc3c3c4c(c5c6ccccc6n2c5c31)C(=O)NC4 [Midostaurin] (first compound 0.02 µM, partner dose 0.08 µM)",97.4%,96.7%,189%,1050%,110%,242%,70.9%,91.4%,69%,110%,193%,100%,120%,280%,171%,112%,66.1%,136%,92.5%
"Nc1ccn([C@@H]2O[C@H](CO)[C@@H](O)C2(F)F)c(=O)n1 [gemcitabine] + Cc1cc(N2CCOCC2)cc2[nH]c(-c3c(NC[C@@H](O)c4cccc(Cl)c4)cc[nH]c3=O)nc12 [BMS536924] (first compound 0.0004 µM, partner dose 0.2 µM)",132%,161%,366%,64.6%,115%,107%,159%,123%,116%,3170%,92.3%,90.2%,88%,39.2%,175%,121%,50.2%,36.9%,42%
"CN1CCN(c2ccc3nc(-c4c(N)c5c(F)cccc5[nH]c4=O)[nH]c3c2)CC1 [Dovitinib] + COc1cc2c(Oc3ccc4[nH]c(C)cc4c3F)ncnc2cc1OCCCN1CCCC1 [cediranib] (first compound 0.1 µM, partner dose 0.4 µM)",82.2%,46.9%,91%,143%,102%,248%,143%,77.7%,59.4%,135%,100%,117%,44%,86.5%,97.2%,103%,106%,104%,147%
"CNC(=O)c1cc(Oc2ccc(NC(=O)Nc3ccc(Cl)c(C(F)(F)F)c3)cc2)ccn1 [sorafenib] + Cc1cc(N2CCOCC2)cc2[nH]c(-c3c(NC[C@@H](O)c4cccc(Cl)c4)cc[nH]c3=O)nc12 [BMS536924] (first compound 0.4 µM, partner dose 0.2 µM)",144%,83.2%,97.5%,117%,137%,191%,79.3%,92.1%,86%,78.7%,85.2%,470%,98.4%,118%,50.1%,100%,191%,94.3%,130%
"CN1CCN(c2ccc3nc(-c4c(N)c5c(F)cccc5[nH]c4=O)[nH]c3c2)CC1 [Dovitinib] + Cc1ccc(NC(=O)c2cccc(N(C)C)c2)cc1NC(=O)c1ccc(O)cc1 [ZM336372] (first compound 0.1 µM, partner dose 2 µM)",112%,101%,125%,150%,150%,265%,84.8%,107%,89.2%,112%,92%,65.6%,108%,117%,234%,16.2%,130%,13.6%,46.2%
"CS(=O)(=O)CCNCc1ccc(-c2ccc3ncnc(Nc4ccc(OCc5cccc(F)c5)c(Cl)c4)c3c2)o1 [lapatinib] + Cn1cncc1[C@@](N)(c1ccc(Cl)cc1)c1ccc2c(c1)c(-c1cccc(Cl)c1)cc(=O)n2C [tipifarnib] (first compound 0.8 µM, partner dose 0.01 µM)",83.6%,94.4%,163%,75.3%,86.9%,122%,79.9%,185%,59.5%,109%,183%,123%,149%,122%,173%,80.8%,98.3%,72.3%,143%
"Cc1cc(Nc2cc(N3CCN(C)CC3)nc(/C=C/c3ccccc3)n2)n[nH]1 + O=C(Nc1cccc(Cl)c1)Nc1ncc(CCNc2ncnc3ccsc23)s1 [SNS314] (first compound 0.04 µM, partner dose 0.0008 µM)",281%,87%,78.1%,63.1%,83%,56.8%,83.9%,76.7%,182%,114%,90.9%,97.5%,118%,85.4%,28%,127%,121%,112%,92%
"CO[C@H]1C[C@@H]2CC[C@@H](C)[C@@](O)(O2)C(=O)C(=O)N2CCCC[C@H]2C(=O)O[C@H]([C@H](C)C[C@@H]2CC[C@@H](OCCO)[C@H](OC)C2)CC(=O)[C@H](C)/C=C(\C)[C@@H](O)[C@@H](OC)C(=O)[C@H](C)C[C@H](C)/C=C/C=C/C=C/1C [everolimus] + NCC(=O)Nc1ccc(-n2nc(C(F)(F)F)cc2-c2ccc3c(ccc4ccccc43)c2)cc1 [OSU03012] (first compound 0.02 µM, partner dose 1 µM)",867%,111%,154%,3320%,46.5%,119%,128%,82%,90.1%,130%,52.1%,136%,104%,208%,109%,247%,106%,241%,48.8%
"CO[C@H]1C[C@@H]2CC[C@@H](C)[C@@](O)(O2)C(=O)C(=O)N2CCCC[C@H]2C(=O)O[C@H]([C@H](C)C[C@@H]2CC[C@@H](OCCO)[C@H](OC)C2)CC(=O)[C@H](C)/C=C(\C)[C@@H](O)[C@@H](OC)C(=O)[C@H](C)C[C@H](C)/C=C/C=C/C=C/1C [everolimus] + C[C@@H]1CCN(C(=O)CC#N)C[C@@H]1N(C)c1ncnc2[nH]ccc12 [CP690550] (first compound 0.02 µM, partner dose 1 µM)",749%,46.7%,122%,726%,104%,117%,105%,75%,103%,68.6%,223%,54.2%,66.5%,87.8%,109%,107%,164%,70.3%,86.2%
"O=C(O)[C@@H]1[O][Sb](=[O])([O][Sb]2(=[O])[O][C@H]([C@H](O)CO)[C@H](O)[C@H](C(=O)O)[O]2)[O][C@H]([C@H](O)CO)[C@@H]1O (some centres undefined) [stibogluconate] + CC(C)(C)c1cnc(CSc2cnc(NC(=O)C3CCNCC3)s2)o1 [SNS-032] (first compound 2 µM, partner dose 0.01 µM)",84.8%,82.2%,91.4%,116%,99.2%,71.4%,223%,64.8%,154%,70.7%,59.1%,106%,55.9%,68.4%,166%,26.5%,40.5%,20.2%,54.7%

# Whole records, quoted from the list. Order of values: cleaved PARP positive nuclei fraction (501Mel)	cleaved PARP positive nuclei fraction (A101D)	cleaved PARP positive nuclei fraction (A2058)	cleaved PARP positive nuclei fraction (A375)	cleaved PARP positive nuclei fraction (C32)	cleaved PARP positive nuclei fraction (CBRC008)	cleaved PARP positive nuclei fraction (CBRC013)	cleaved PARP positive nuclei fraction (CBRC014)	cleaved PARP positive nuclei fraction (CBRC016)	cleaved PARP positive nuclei fraction (CBRC017)	cleaved PARP positive nuclei fraction (COLO792)	cleaved PARP positive nuclei fraction (COLO800)	cleaved PARP positive nuclei fraction (COLO829)	cleaved PARP positive nuclei fraction (G361)	cleaved PARP positive nuclei fraction (IPC-298)	cleaved PARP positive nuclei fraction (IST-MEL1)	cleaved PARP positive nuclei fraction (LB2518-MEL)	cleaved PARP positive nuclei fraction (LOXIMVI)	cleaved PARP positive nuclei fraction (MEL-HO)
# CO[C@H]1C[C@@H]2CC[C@@H](C)[C@@](O)(O2)C(=O)C(=O)N2CCCC[C@H]2C(=O)O[C@H]([C@H](C)C[C@@H]2CC[C@@H](OCCO)[C@H](OC)C2)CC(=O)[C@H](C)/C=C(\C)[C@@H](O)[C@@H](OC)C(=O)[C@H](C)C[C@H](C)/C=C/C=C/C=C/1C [everolimus] + CC(C)(C)c1cnc(CSc2cnc(NC(=O)C3CCNCC3)s2)o1 [SNS-032] (first compound 0.02 µM, partner dose 0.01 µM) as listed: 144%	102%	144%	369%	50.3%	174%	56.7%	92.5%	162%	126%	118%	85%	191%	60.2%	117%	112%	59.2%	82.4%	51.9%
# C[C@@H](Oc1cc(-c2cnn(C3CCNCC3)c2)cnc1N)c1c(Cl)ccc(F)c1Cl [Crizotinib] + CO[C@@H]1[C@H](N(C)C(=O)c2ccccc2)C[C@H]2O[C@]1(C)n1c3ccccc3c3c4c(c5c6ccccc6n2c5c31)C(=O)NC4 [Midostaurin] (first compound 0.2 µM, partner dose 0.08 µM) as listed: 78.2%	86.2%	67.8%	242%	132%	207%	122%	109%	210%	86%	164%	96.8%	130%	205%	93.9%	34.4%	201%	29.9%	36.5%
